# Measured values from the supplement of paper PMC8728848.
# The other results are listed elsewhere or left out.
# Legend:
# Assay in all cases: glycan array binding signal (z-score within array); higher = stronger binding
# Settings in all cases: glycan notation: IUPAC condensed, linker removed
# [1] = target: GlcNAc(b1-2)[GlcNAc(b1-4)]Man(a1-3)[GlcNAc(b1-4)][GlcNAc(b1-2)[GlcNAc(b1-6)]Man(a1-6)]Man(b1-4)GlcNAc(b1-4)GlcNAc
# Procedure, shortened: (§1)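 Glycan array data came from 3228 arrays in the Consortium for Functional Glycomics database, and only arrays with an available protein sequence were kept. Glycan names were put into IUPAC-condensed notation, and columns mapping to the same glycan were averaged. The binding signal is a within-array Z-score, averaged across arrays of one protein sequence run at different concentrations or buffers and across linkers. A negative Z-score can be read as non-binding.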
# [2] = target: GlcNAc(b1-2)[GlcNAc(b1-4)]Man(a1-3)[GlcNAc(b1-4)][GlcNAc(b1-2)[GlcNAc(b1-6)]Man(a1-6)]Man(b1-4)GlcNAc(b1-4)[Fuc(a1-6)]GlcNAc
# Procedure, shortened: as §1
# [3] = target: GlcNAc(b1-2)[GlcNAc(b1-6)]Man(a1-6)[GlcNAc(b1-2)Man(a1-3)]Man(b1-4)GlcNAc(b1-4)GlcNAc
# Procedure, shortened: as §1
# [4] = target: GlcNAc(b1-2)[GlcNAc(b1-6)]Man(a1-6)[GlcNAc(b1-2)Man(a1-3)]Man(b1-4)GlcNAc(b1-4)[Fuc(a1-6)]GlcNAc
# Procedure, shortened: as §1
# [5] = target: GlcNAc(b1-2)[GlcNAc(b1-6)]Man(a1-6)[GlcNAc(b1-4)][GlcNAc(b1-2)Man(a1-3)]Man(b1-4)GlcNAc(b1-4)GlcNAc
# Procedure, shortened: as §1
# [6] = target: GlcNAc(b1-3)Fuc
# Procedure, shortened: as §1
# [7] = target: GlcNAc(b1-3)Gal
# Procedure, shortened: as §1
# [8] = target: GlcNAc(b1-3)Gal(b1-3)GalNAc
# Procedure, shortened: as §1
# [9] = target: GlcNAc(b1-3)Gal(b1-4)Glc
# Procedure, shortened: as §1
# [10] = target: GlcNAc(b1-3)Gal(b1-4)GlcNAc
# Procedure, shortened: as §1
# [11] = target: GlcNAc(b1-3)Gal(b1-4)GlcNAc(b1-2)Man(a1-3)[GlcNAc(b1-3)Gal(b1-4)GlcNAc(b1-2)Man(a1-6)]Man(b1-4)GlcNAc(b1-4)GlcNAc
# Procedure, shortened: as §1
# [12] = target: GlcNAc(b1-3)Gal(b1-4)GlcNAc(b1-2)Man(a1-3)[GlcNAc(b1-3)Gal(b1-4)GlcNAc(b1-2)Man(a1-6)]Man(b1-4)GlcNAc(b1-4)[Fuc(a1-6)]GlcNAc
# Procedure, shortened: as §1
# [13] = target: GlcNAc(b1-3)Gal(b1-4)GlcNAc(b1-2)[GlcNAc(b1-3)Gal(b1-4)GlcNAc(b1-6)]Man(a1-6)[GlcNAc(b1-3)Gal(b1-4)GlcNAc(b1-2)Man(a1-3)]Man(b1-4)GlcNAc(b1-4)GlcNAc
# Procedure, shortened: as §1
# [14] = target: GlcNAc(b1-3)Gal(b1-4)GlcNAc(b1-3)Gal(b1-4)GlcNAc
# Procedure, shortened: as §1
# [15] = target: GlcNAc(b1-3)Gal(b1-4)GlcNAc(b1-3)Gal(b1-4)GlcNAc(b1-2)Man(a1-3)[GlcNAc(b1-3)Gal(b1-4)GlcNAc(b1-3)Gal(b1-4)GlcNAc(b1-2)Man(a1-6)]Man(b1-4)GlcNAc(b1-4)GlcNAc
# Procedure, shortened: as §1
# [16] = target: GlcNAc(b1-3)Gal(b1-4)GlcNAc(b1-3)Gal(b1-4)GlcNAc(b1-2)Man(a1-3)[GlcNAc(b1-3)Gal(b1-4)GlcNAc(b1-3)Gal(b1-4)GlcNAc(b1-2)Man(a1-6)]Man(b1-4)GlcNAc(b1-4)[Fuc(a1-6)]GlcNAc
# Procedure, shortened: as §1
# [17] = target: GlcNAc(b1-3)Gal(b1-4)GlcNAc(b1-3)Gal(b1-4)GlcNAc(b1-2)[GlcNAc(b1-3)Gal(b1-4)GlcNAc(b1-3)Gal(b1-4)GlcNAc(b1-6)]Man(a1-6)[GlcNAc(b1-3)Gal(b1-4)GlcNAc(b1-3)Gal(b1-4)GlcNAc(b1-2)Man(a1-3)]Man(b1-4)GlcNAc(b1-4)[Fuc(a1-6)]GlcNAc
# Procedure, shortened: as §1
# [18] = target: GlcNAc(b1-3)Gal(b1-4)GlcNAc(b1-3)Gal(b1-4)GlcNAc(b1-3)Gal(b1-4)GlcNAc(b1-2)Man(a1-3)[GlcNAc(b1-3)Gal(b1-4)GlcNAc(b1-3)Gal(b1-4)GlcNAc(b1-3)Gal(b1-4)GlcNAc(b1-2)Man(a1-6)]Man(b1-4)GlcNAc(b1-4)GlcNAc
# Procedure, shortened: as §1
# [19] = target: GlcNAc(b1-3)Gal(b1-4)GlcNAc(b1-3)Gal(b1-4)GlcNAc(b1-3)Gal(b1-4)GlcNAc(b1-2)Man(a1-3)[GlcNAc(b1-3)Gal(b1-4)GlcNAc(b1-3)Gal(b1-4)GlcNAc(b1-3)Gal(b1-4)GlcNAc(b1-2)Man(a1-6)]Man(b1-4)GlcNAc(b1-4)[Fuc(a1-6)]GlcNAc
# Procedure, shortened: as §1
# [20] = target: GlcNAc(b1-3)Gal(b1-4)GlcNAc(b1-3)Gal(b1-4)GlcNAc(b1-3)Gal(b1-4)GlcNAc(b1-2)[GlcNAc(b1-3)Gal(b1-4)GlcNAc(b1-3)Gal(b1-4)GlcNAc(b1-3)Gal(b1-4)GlcNAc(b1-6)]Man(a1-6)[GlcNAc(b1-3)Gal(b1-4)GlcNAc(b1-3)Gal(b1-4)GlcNAc(b1-3)Gal(b1-4)GlcNAc(b1-2)Man(a1-3)]Man(b1-4)GlcNAc(b1-4)[Fuc(a1-6)]GlcNAc
# Procedure, shortened: as §1
# [21] = target: GlcNAc(b1-3)Gal(b1-4)GlcNAc(b1-3)Gal(b1-4)GlcNAc(b1-3)Gal(b1-4)GlcNAc(b1-3)Gal(b1-4)GlcNAc(b1-2)Man(a1-3)[GlcNAc(b1-3)Gal(b1-4)GlcNAc(b1-3)Gal(b1-4)GlcNAc(b1-3)Gal(b1-4)GlcNAc(b1-3)Gal(b1-4)GlcNAc(b1-2)Man(a1-6)]Man(b1-4)GlcNAc(b1-4)GlcNAc
# Procedure, shortened: as §1
# [22] = target: GlcNAc(b1-3)Gal(b1-4)GlcNAc(b1-3)Gal(b1-4)GlcNAc(b1-3)Gal(b1-4)GlcNAc(b1-3)Gal(b1-4)GlcNAc(b1-2)Man(a1-3)[GlcNAc(b1-3)Gal(b1-4)GlcNAc(b1-3)Gal(b1-4)GlcNAc(b1-3)Gal(b1-4)GlcNAc(b1-3)Gal(b1-4)GlcNAc(b1-2)Man(a1-6)]Man(b1-4)GlcNAc(b1-4)[Fuc(a1-6)]GlcNAc
# Procedure, shortened: as §1
# [23] = target: GlcNAc(b1-3)Gal(b1-4)GlcNAc(b1-3)Gal(b1-4)GlcNAc(b1-3)Gal(b1-4)GlcNAc(b1-3)Gal(b1-4)GlcNAc(b1-2)[GlcNAc(b1-3)Gal(b1-4)GlcNAc(b1-3)Gal(b1-4)GlcNAc(b1-3)Gal(b1-4)GlcNAc(b1-3)Gal(b1-4)GlcNAc(b1-6)]Man(a1-6)[GlcNAc(b1-3)Gal(b1-4)GlcNAc(b1-3)Gal(b1-4)GlcNAc(b1-3)Gal(b1-4)GlcNAc(b1-3)Gal(b1-4)GlcNAc(b1-2)Man(a1-3)]Man(b1-4)GlcNAc(b1-4)[Fuc(a1-6)]GlcNAc
# Procedure, shortened: as §1
binder,measurement,setting,value
Clone646PsrP (Streptococcus pneumoniae) (protein) MDHHHHHHHHASENLYFQGAPAINASLNIAKSETKVYTGEGVDSVYRVPIYYKLKVTNDGSKLTFTYTVTYVNPKTNDLGNISSMRPGYSIYNSGTSTQTMLTLGSDLGKPSGVKNYITDKNGRQVLSYNTSTMTTQGSGYTWGNGAQMNGFFAKKGYGLTSSWTVPITGTDTSFTFTPYAARTDRIGINYFNGGGKVVESSTTSQSLSQSKSLSVSAS,glycan array binding signal (z-score),[1],-0.425
same,glycan array binding signal (z-score),[2],-0.966
same,glycan array binding signal (z-score),[3],-0.558
same,glycan array binding signal (z-score),[4],-0.71
same,glycan array binding signal (z-score),[5],-0.976
same,glycan array binding signal (z-score),[6],-0.086
same,glycan array binding signal (z-score),[7],-0.961
same,glycan array binding signal (z-score),[8],-0.179
same,glycan array binding signal (z-score),[9],-0.488
same,glycan array binding signal (z-score),[10],-0.583
same,glycan array binding signal (z-score),[11],-0.775
same,glycan array binding signal (z-score),[12],-0.329
same,glycan array binding signal (z-score),[13],-0.515
same,glycan array binding signal (z-score),[14],-0.626
same,glycan array binding signal (z-score),[15],0.124
same,glycan array binding signal (z-score),[16],-0.819
same,glycan array binding signal (z-score),[17],-0.864
same,glycan array binding signal (z-score),[18],-0.901
same,glycan array binding signal (z-score),[19],0.342
same,glycan array binding signal (z-score),[20],-0.924
same,glycan array binding signal (z-score),[21],-0.39
same,glycan array binding signal (z-score),[22],-0.863
same,glycan array binding signal (z-score),[23],-0.931

# Some of the entries so far, tab-delimited:
binder	measurement	setting	value
Clone646PsrP (Streptococcus pneumoniae) (protein) MDHHHHHHHHASENLYFQGAPAINASLNIAKSETKVYTGEGVDSVYRVPIYYKLKVTNDGSKLTFTYTVTYVNPKTNDLGNISSMRPGYSIYNSGTSTQTMLTLGSDLGKPSGVKNYITDKNGRQVLSYNTSTMTTQGSGYTWGNGAQMNGFFAKKGYGLTSSWTVPITGTDTSFTFTPYAARTDRIGINYFNGGGKVVESSTTSQSLSQSKSLSVSAS	glycan array binding signal (z-score)	[1]	-0.425
same	glycan array binding signal (z-score)	[21]	-0.39
